Assay results from EP2420255A2, “Polypeptide inhibitors of urokinase type plasminogen activator” (Ecole Polytechnique Federale De Lausanne (EPFL), priority 2010, dated 2012).
At least one peptide structure holds a part that was inferred or is arguable (an end, a ring closure or a residue).

Target: uPA (Homo sapiens, UniProt P00749)
Assay: Activity determination of chemically synthesized inhibitors, residual protease activity
Type: biochemical
Parameters: human uPA (UPA-LMW, from human urine, 33 kDa); purchased Molecular Innovations, Novi, MI, USA UPA-LMW; host or cells: human urine
Settings: linear / unconjugated peptide versus peptide conjugate
Procedure: Peptides with a free amine at the N-terminus and an amide at the C-terminus were chemically synthesized on a 50 mg to 1 g scale by solid phase chemistry (JPT Peptide Technologies, Berlin, Germany or GL Biochem Ltd., Shanghai, China). The crude peptides (1 mM) in 1 ml 5% v/v DMSO, 65% v/v 20 mM NH4HCO3, pH 8.0 and 30% v/v ACN, were reacted with TBMB (1.2 mM) for 1 hr at 30 °C. The reaction product was purified by preparative reversed-phase high performance liquid chromatography (HPLC) system (PrepLC 4000, Waters, Millford, MA, USA) and a Vydac C18 (218TP) column (22 x 250 mm) (Grace & Co., USA). At a flow rate of 20 ml/min, a linear gradient was applied with a mobile phase composed of eluant A (0.1% v/v aqueous trifluoroacetic acid (TFA) solution, 99.9 % v/v H2O) and eluant B (94.9% v/v ACN, 5% v/v H2O and 0.1 % v/v TF A). The purified peptides were freeze-dried and dissolved in H2O for activity measurements.
Residual activities were measured in buffer containing 10 mM Tris-Cl, pH 7.4, 150 mM NaCl, 10 mM MgCl2, 1mM CaCl2, 0.1% w/v BSA, 0.01% v/v Triton-X100 and 5% v/v DMSO in volume of […]. […] Absorption and fluorescence intensity were measured with a Spectramax absorption plate reader (recording at 410 nm; Molecular Devices, USA) and a Spectramax Gemini fluorescence plate reader (excitation at 355 nm, emission at 460 nm; Molecular Devices, USA), respectively. […]

## H-ASSRYEVDSRGRGSASG-NH2 [UK18ser]
  inhibition weaker than the TBMB-cyclised UK18 peptide: around 200 fold
Listed as unconjugated peptide UK18
  inhibition weaker than the TBMB-cyclised UK18 peptide: 200 fold
